# Experimental data published in patent US9095587B2, “Methods and compositions for improved nerve conduction velocity” (Spinifex Pharmaceuticals Pty Ltd, priority 2010, dated 2015).
# Values joined by “and” are separate entries in the source; they are usually repeats but may differ in a detail not shown here. Equal entries are not always repeated. Structures can show the parent of a compound that is named as a salt.
# Test: Body weight, blood glucose and general condition of treated diabetic rats
# Assay type: in vivo, rat
# Conditions: last 2 weeks of 8 weeks diabetes; for Blood glucose, Mean: group mean of 10 diabetic rats; for Blood glucose: individual diabetic rats
# Procedure: (§1) Methods: Diabetes was induced in mature (19 week old) male Sprague-Dawley by a single STZ injection (40-45 mg/kg i.p.). The diabetic state was monitored weekly using commercially available test strips for blood (tail vein) and urine glucose levels. Body weight was also monitored daily. The criteria for the diabetic state were: blood glucose>19.9 mM, glycosuria, and no evidence of body weight gain.
# as §1, with “also be” for “also”
structure (smiles),measurement,setting,value
"COc1ccc2c(c1OCc1ccccc1)C[C@@H](C(=O)O)N(C(=O)C(c1ccccc1)c1ccccc1)C2 [Compound 1 sodium salt, S-2-(diphenylacetyl)-5-benzyloxy-6-methoxy-1,2,3,4-tetrahydroisoquinoline-3-carboxylic acid]","Blood glucose, Mean",0.01048 mg/kg daily by gavage,33.58 mM
same,"Blood glucose, Mean",0.0349 mg/kg daily by gavage,32.63 mM
same,"Blood glucose, Mean",0.1048 mg/kg daily by gavage,32.94 mM
same,"Blood glucose, Mean",1.048 mg/kg daily by gavage,35.57 mM
same,Blood glucose,"0.01048 mg/kg daily by gavage, 0.01048 mg/kg",26.7 mM and 34.2 mM and 37.6 mM and 39.8 mM and 38.4 mM and 33.2 mM and 27.9 mM and 32.4 mM and 28.4 mM and 37.2 mM
same,Blood glucose,"0.0349 mg/kg daily by gavage, 0.0349 mg/kg",34.6 mM (2×) and 30.3 mM (2×) and 37.8 mM and 30.4 mM and 39.6 mM and 27.8 mM and 32.2 mM and 28.7 mM
same,Blood glucose,"0.1048 mg/kg daily by gavage, 0.1048 mg/kg",30.3 mM and 31.0 mM and 27.5 mM and 27.6 mM and 32.0 mM and 32.8 mM and 34.2 mM and 31.8 mM and 30.0 mM and 52.2 mM
same,Blood glucose,"1.048 mg/kg daily by gavage, 1.048 mg/kg",26.2 mM and 55.6 mM and 32.4 mM and 49.6 mM and 27.8 mM and 28.2 mM and 38.6 mM and 36.2 mM and 33.0 mM and 28.1 mM
